Source: patent US20030108872A1, “Genomics-assisted rapid identification of targets” (priority 2000, published 2003)

System: E. coli
Experiment: Mutation frequency to resistance with and without MNNG treatment
Format: cell-based
Conditions: LB agar with 2 to 8 fold MIC of antibiotic
[1] = after MNNG treatment (400 μg/ml, 20 minutes)

SMILES | mutation frequency to resistance [1] | mutation frequency to resistance (before MNNG treatment)
CCn1cc(C(=O)O)c(=O)c2ccc(C)nc21 [nalidixic acid] | 1.6×10^−6 | 3.5×10^−8
Oc1cc(Cl)ccc1Oc1ccc(Cl)cc1Cl [triclosan] | 3.2×10^−8 | < 10^−9
